The values below come from publication doi:10.1101/2022.03.23.485444.

Experiment in all cases: two-hybrid
Assay [1] deals with T1, ZYP1B-BD (full length ZYP1B) (Arabidopsis thaliana) (UniProt P61430).
T1 sequence: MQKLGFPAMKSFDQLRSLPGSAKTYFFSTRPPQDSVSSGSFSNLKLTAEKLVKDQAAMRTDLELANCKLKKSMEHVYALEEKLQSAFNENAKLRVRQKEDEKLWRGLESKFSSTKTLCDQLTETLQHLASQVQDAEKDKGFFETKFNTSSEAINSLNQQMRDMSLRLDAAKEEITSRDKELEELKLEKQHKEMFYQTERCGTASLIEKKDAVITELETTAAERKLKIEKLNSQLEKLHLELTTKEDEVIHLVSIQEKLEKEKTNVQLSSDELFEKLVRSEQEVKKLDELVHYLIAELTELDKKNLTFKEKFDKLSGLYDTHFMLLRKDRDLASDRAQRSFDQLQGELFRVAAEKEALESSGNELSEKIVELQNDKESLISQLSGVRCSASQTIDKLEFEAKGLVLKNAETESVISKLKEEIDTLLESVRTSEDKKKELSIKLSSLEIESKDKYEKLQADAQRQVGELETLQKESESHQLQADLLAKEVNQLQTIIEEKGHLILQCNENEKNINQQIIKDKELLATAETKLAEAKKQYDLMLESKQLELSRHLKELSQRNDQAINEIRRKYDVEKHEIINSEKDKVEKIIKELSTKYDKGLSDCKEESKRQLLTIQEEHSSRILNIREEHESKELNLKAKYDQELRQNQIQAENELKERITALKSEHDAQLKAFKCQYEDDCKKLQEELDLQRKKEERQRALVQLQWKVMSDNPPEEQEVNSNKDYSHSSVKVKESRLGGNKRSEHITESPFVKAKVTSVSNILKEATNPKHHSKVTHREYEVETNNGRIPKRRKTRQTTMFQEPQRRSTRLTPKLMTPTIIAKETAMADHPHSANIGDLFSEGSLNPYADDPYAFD

Assay [2] has as its target T2, ZYP1B-BD (full length ZYP1B) (Arabidopsis thaliana), P61430.
T2 chain: T1 sequence
As to conditions: remark: other sources report otherwise.

Assay [3] deals with T3, ZYP1B^601-725-BD (Arabidopsis thaliana) (UniProt P61430).
T3 sequence: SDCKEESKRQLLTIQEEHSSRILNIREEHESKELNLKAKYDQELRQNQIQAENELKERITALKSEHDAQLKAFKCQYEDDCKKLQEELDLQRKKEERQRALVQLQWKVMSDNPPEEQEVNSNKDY

The target of assay [4] is T4, ZYP1B^601-856-BD (Arabidopsis thaliana) (UniProt P61430).
T4 sequence: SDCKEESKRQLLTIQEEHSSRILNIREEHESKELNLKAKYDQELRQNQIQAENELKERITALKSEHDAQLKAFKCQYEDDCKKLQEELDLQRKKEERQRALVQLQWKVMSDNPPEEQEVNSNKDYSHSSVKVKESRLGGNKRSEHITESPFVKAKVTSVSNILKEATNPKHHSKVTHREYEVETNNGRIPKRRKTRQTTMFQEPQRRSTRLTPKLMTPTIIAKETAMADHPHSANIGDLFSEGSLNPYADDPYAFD

Assay [5] has as its target T5, ZYP1B^661-725-BD (Arabidopsis thaliana) (UniProt P61430).
T5 sequence: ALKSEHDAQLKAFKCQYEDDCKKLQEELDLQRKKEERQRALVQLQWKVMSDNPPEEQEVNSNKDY

Assay [6] deals with T6, ZYP1B^726-834-BD (Arabidopsis thaliana) (UniProt P61430).
T6 sequence: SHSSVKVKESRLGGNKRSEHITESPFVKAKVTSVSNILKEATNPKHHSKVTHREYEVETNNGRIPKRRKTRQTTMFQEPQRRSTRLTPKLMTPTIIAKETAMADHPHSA

These are yes or no findings as the source states them, for the method shown. Some binding calls cover weakened binding; strength is not graded here. Where a sequence is shown, tags or fusion partners need not be part of it.

B1: PCH2^131-467, AD fusion (domain or fragment, UniProt Q8H1F9 131-467)
chain: TFQLIEEGPCEDLCADGQPASFNEWILPAKEFDGLWESLIYESGLKQRLLRYAASALLFTQKGVNPNLVSWNRIILLHGPPGTGKTSLCKALAQKLSIRCNSRYPHCQLIEVNAHSLFSKWFSESGKLVAKLFQKIQEMVEEDGNLVFVLIDEVESLAAARKAALSGSEPSDSIRVVNALLTQMDKLKSAPNVIILTTSNITTAIDVAFVDRADIKAYVGPPTLHVRYEILRSCVEELISKGIISSFQGCDGLSIPSFSSLKEKLSESEVHDTNTVPWFCKQLIEAAKGCEGLSGRSLRKLPFLAHAALADPYSHDPSNFLCTMIETAKREKSEQPE
Take B1: the binding entry in assay [1] is on record as “no binding”.

B2: PCH2 (full length), AD fusion, Q8H1F9 1-467 (protein)
chain: MVEDPIPLPNASMEVSYQNPIEAATIPVQIAVAEPVATPNPPPCLHENKFLVSVEVCLKPSSTARLEDVQRAVERMLENRSMSYADGLVLIPADDLFLVDNVQRICICDTEEWVKNNDVLLFWQVKPVVHTFQLIEEGPCEDLCADGQPASFNEWILPAKEFDGLWESLIYESGLKQRLLRYAASALLFTQKGVNPNLVSWNRIILLHGPPGTGKTSLCKALAQKLSIRCNSRYPHCQLIEVNAHSLFSKWFSESGKLVAKLFQKIQEMVEEDGNLVFVLIDEVESLAAARKAALSGSEPSDSIRVVNALLTQMDKLKSAPNVIILTTSNITTAIDVAFVDRADIKAYVGPPTLHVRYEILRSCVEELISKGIISSFQGCDGLSIPSFSSLKEKLSESEVHDTNTVPWFCKQLIEAAKGCEGLSGRSLRKLPFLAHAALADPYSHDPSNFLCTMIETAKREKSEQPE
B2: the binding result in assay [2] was “no binding”.

B3: PCH2^1-130, AD fusion (domain or fragment, UniProt Q8H1F9 1-130)
chain: MVEDPIPLPNASMEVSYQNPIEAATIPVQIAVAEPVATPNPPPCLHENKFLVSVEVCLKPSSTARLEDVQRAVERMLENRSMSYADGLVLIPADDLFLVDNVQRICICDTEEWVKNNDVLLFWQVKPVVH
On to B3, for which the binding result is on record as “no binding” in assay [1]; “binds” in assay [3]; “binds” in assay [4]; “binds” in assay [5]; “no binding” in assay [6].
